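NB-EBc1 neuroblastoma cells exposed to compound for 48 hours, with surviving metabolically active cells measured by CellTiter-Glo luminescence. Compounds ran as 8- or 11-point dilution series whose top final concentration was about 46 µM. Potency is the fitted AC50 for loss of viability, so a smaller value means a more potent cytotoxic compound. Calls come from curve class and score: well-fitted cytotoxic curves scoring 40 to 100 are active, weak, partial or top-dose-only effects scoring 1 to 39 are inconclusive, and class 4 is inactive.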

Values are in µM. All entries here are filed as inconclusive. These entries are mostly ones the record files as inconclusive; other results of the assay are not listed here. A potency from a partial, single-point or poor curve is only a rough figure. Activity scores are not listed here.

structure,potency (µM),remark
C[C@]12CC[C@@H]3c4ccc(O)cc4CC[C@H]3[C@@H]1C[C@@H](O)[C@@H]2O,14.96,"cytotoxic, partial curve"
C[C@]12CC[C@H](O)CC1=CC[C@H]1[C@H]3CCC(=O)[C@@]3(C)CC[C@@H]12,26.35,"cytotoxic, single point"
Cc1c[nH]c2ccccc12,33.5,"cytotoxic, single point"
CCOC(=O)[C@@H](N)Cc1ccc(-c2cc(O[C@H](c3ccc(Cl)cc3-n3ccc(C)n3)C(F)(F)F)nc(N)n2)cc1,33.17,"cytotoxic, single point"
COc1cc(C[C@@H](CO)[C@H](CO)Cc2ccc(O)c(OC)c2)ccc1O,29.57,"cytotoxic, single point"
O=c1[nH]cnc2nc[nH]c12,29.86,"cytotoxic, single point"
O=C1c2cccc(O)c2C(=O)c2c(O)cccc21,33.5,"cytotoxic, single point"
C[C@@H]1[C@H](O)[C@@H](C)C=CC=CC=CC=CC=CC=CC=C[C@H](O[C@@H]2O[C@H](C)[C@H](O)[C@H](N)[C@@H]2O)C[C@@H]2O[C@](O)(C[C@@H](O)C[C@@H](O)[C@H](O)CC[C@@H](O)C[C@@H](O)CC(=O)O[C@H]1C)C[C@H](O)[C@@H]2C(=O)O,37.22,"cytotoxic, single point"
Cc1cccc(N(C)C(=S)Oc2ccc3c(c2)C2CCC3C2)c1 (stereo unspecified),33.5,"cytotoxic, single point"
CN(C)CCCN1c2ccccc2Sc2ccccc21,21.14,"cytotoxic, partial curve, poor fit"
C#C[C@]1(O)CC[C@H]2[C@@H]3CCC4=CC(=O)CC[C@@H]4[C@H]3CC[C@@]21C,26.61,"cytotoxic, single point"
COc1ccc2c(c1OC)C(=O)O[C@@H]2[C@H]1c2c(cc3c(c2OC)OCO3)CCN1C,18.84,"cytotoxic, single point"
NCC1CCC(C(=O)Oc2ccc(CCC(=O)O)cc2)CC1 (stereo unspecified),18.84,"cytotoxic, single point"
COc1ccc(/C=C/C(=O)c2ccc(OC)cc2OC)cc1,29.86,"cytotoxic, single point"
CCOC(=O)c1ccc(O)c(O)c1,18.84,"cytotoxic, single point"
O=C(Nc1ccc(F)c(C(F)(F)F)c1)Nc1nnc(-c2ccncc2)s1,8.333,"cytotoxic, partial curve"
COC(=O)C1C2CC3c4[nH]c5cc(OC)ccc5c4CCN3CC2CC(OC(=O)c2cc(OC)c(OC)c(OC)c2)C1OC (stereo unspecified),33.17,"cytotoxic, single point"
Cc1c(Cl)cccc1Nc1ccccc1C(=O)O,13.34,"cytotoxic, single point"

For reference, 2 entries once more:

structure,potency (µM),remark
C[C@]12CC[C@@H]3c4ccc(O)cc4CC[C@H]3[C@@H]1C[C@@H](O)[C@@H]2O,14.96,"cytotoxic, partial curve"
NCC1CCC(C(=O)Oc2ccc(CCC(=O)O)cc2)CC1 (stereo unspecified),18.84,"cytotoxic, single point"

Source: PubChem BioAssay AID1347095 (NCATS, 2019).